Here are results for 1 substance from article doi:10.1101/2020.02.19.956243.

Sequences of proteins named here, by UniProt entry; tags and fusion partners are left off. A change or cut given only in a name is not applied to a line headed by its entry.
UniProt Q13547, whole entry, stated change not applied: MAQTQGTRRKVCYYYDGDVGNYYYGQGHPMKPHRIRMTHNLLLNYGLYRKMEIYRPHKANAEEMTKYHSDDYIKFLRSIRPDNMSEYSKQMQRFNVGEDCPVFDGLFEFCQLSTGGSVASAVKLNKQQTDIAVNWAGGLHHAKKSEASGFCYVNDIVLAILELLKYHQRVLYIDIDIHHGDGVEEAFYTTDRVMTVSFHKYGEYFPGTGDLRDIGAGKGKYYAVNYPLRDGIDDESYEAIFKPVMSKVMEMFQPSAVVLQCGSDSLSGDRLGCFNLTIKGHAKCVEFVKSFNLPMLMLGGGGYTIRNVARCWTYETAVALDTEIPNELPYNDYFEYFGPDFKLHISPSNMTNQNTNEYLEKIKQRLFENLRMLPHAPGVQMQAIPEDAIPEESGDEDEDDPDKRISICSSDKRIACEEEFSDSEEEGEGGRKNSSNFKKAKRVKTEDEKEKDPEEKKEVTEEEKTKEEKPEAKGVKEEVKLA

No constants are given. Whether binding was seen depends on the method and setting. In cells and extracts the contact can be indirect. For some assays here: Where a sequence is shown, tags or fusion partners need not be part of it.

One assay addresses HA-tagged HDAC1 (UniProt Q13547). Description: co-IP.
The target of another assay is T1, HA-tagged SIN3A (UniProt Q96ST3).
T1 sequence: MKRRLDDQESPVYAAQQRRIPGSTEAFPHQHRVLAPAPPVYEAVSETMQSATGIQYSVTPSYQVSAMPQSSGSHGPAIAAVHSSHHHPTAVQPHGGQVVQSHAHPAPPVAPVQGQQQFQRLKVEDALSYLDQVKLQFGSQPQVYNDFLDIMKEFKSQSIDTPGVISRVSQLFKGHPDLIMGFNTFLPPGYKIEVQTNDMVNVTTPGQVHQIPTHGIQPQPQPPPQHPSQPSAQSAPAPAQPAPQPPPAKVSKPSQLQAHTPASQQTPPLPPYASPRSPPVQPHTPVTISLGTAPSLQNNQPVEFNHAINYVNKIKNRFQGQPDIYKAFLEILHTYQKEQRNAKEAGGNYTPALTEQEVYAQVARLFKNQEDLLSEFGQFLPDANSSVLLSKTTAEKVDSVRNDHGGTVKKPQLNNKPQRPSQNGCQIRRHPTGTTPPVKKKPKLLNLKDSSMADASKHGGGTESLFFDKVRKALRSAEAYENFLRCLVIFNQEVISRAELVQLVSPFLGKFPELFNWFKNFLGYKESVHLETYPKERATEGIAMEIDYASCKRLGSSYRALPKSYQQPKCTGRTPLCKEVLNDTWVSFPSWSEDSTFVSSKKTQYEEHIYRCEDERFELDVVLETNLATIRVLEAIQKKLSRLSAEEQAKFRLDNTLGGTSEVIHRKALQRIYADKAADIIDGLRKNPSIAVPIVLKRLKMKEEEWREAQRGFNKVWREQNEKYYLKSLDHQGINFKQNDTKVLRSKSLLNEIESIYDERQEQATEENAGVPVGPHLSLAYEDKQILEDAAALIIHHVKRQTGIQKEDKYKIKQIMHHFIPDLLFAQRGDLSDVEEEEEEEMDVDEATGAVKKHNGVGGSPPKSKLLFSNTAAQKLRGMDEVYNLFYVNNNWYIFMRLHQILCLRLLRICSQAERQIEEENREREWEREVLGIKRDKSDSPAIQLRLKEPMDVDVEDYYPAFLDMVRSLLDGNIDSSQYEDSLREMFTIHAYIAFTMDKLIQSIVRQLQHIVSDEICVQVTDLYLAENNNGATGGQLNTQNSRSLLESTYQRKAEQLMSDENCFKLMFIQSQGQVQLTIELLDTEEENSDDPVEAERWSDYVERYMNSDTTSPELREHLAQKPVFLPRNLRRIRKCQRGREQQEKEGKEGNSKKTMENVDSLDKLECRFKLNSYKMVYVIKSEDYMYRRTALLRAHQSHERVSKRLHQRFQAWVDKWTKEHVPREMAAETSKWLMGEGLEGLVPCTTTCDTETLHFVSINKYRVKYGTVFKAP
Kind of assay: co-IP.

For the substance “FLAG-tagged HoxA11 ΔAla internal deletion mutant (mouse) (from UniProt P31311)”, the binding entry in the assay with HA-tagged HDAC1 and with HA-tagged SIN3A was “no binding” in each case.
